{"source": "PubChem BioAssay AID602196 (INSERM, 2012)", "screen": "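Knock-downs that protect lung cancer cells from cisplatin or sensitise them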", "cell system": "human A549 lung cancer cells", "reagents": "siRNA pair against human genes", "duration": "48 h transfection before cisplatin; time from cisplatin to read-out not stated", "treatment": "cisplatin at a dose killing half of control-siRNA cells; exact dose and duration not given", "measured": "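Shift in cisplatin death relative to control siRNA, from -50 (all cells die) to +50 (no cells die); siRNAs harmful on their own scored 0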", "reading the numbers": "two-siRNA summed score (-2 to +2): higher = both siRNAs protect from cisplatin killing; -2 means both sensitise", "active means": "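Each siRNA scores 0 if harmful alone by LDH or WST-1, otherwise +1 if it reduces and -1 if it increases cisplatin killing; a gene is active when both siRNAs agree (sum +2 or -2)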", "calls": "active = both siRNAs shift cisplatin killing the same way; inactive = no consistent shift, or siRNA harmful alone", "note": "The whole screen tested about 23,000 reagents; this is a part drawn at random. 455 of them (2%) count as active. 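Active includes both protection and sensitisation; some change values fall well beyond the stated -50 to +50 range.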 A number with no mark means an inactive call. Not all columns of the deposit are shown. Not stated in the record: the amount of reagent."}
The first 2 records, ahead of the listing:
{"gene":"KCNQ3 (potassium voltage-gated channel subfamily Q member 3)","two-siRNA summed score (-2 to +2)":0}
{"gene":"LOC441470","two-siRNA summed score (-2 to +2)":1}

The list itself, from the start:
{"gene":"KCNQ3 (potassium voltage-gated channel subfamily Q member 3)","two-siRNA summed score (-2 to +2)":0}
{"gene":"LOC441470","two-siRNA summed score (-2 to +2)":1}
{"gene":"OR1L4 (olfactory receptor family 1 subfamily L member 4)","two-siRNA summed score (-2 to +2)":0}
{"gene":"KCNK4 (potassium two pore domain channel subfamily K member 4)","two-siRNA summed score (-2 to +2)":0}
{"gene":"DCAKD (dephospho-CoA kinase domain containing)","two-siRNA summed score (-2 to +2)":0}
{"gene":"CACNA1C (calcium voltage-gated channel subunit alpha1 C)","two-siRNA summed score (-2 to +2)":0}
{"gene":"MT1E (metallothionein 1E)","two-siRNA summed score (-2 to +2)":-1}
{"gene":"AKR1E2 (aldo-keto reductase family 1 member E2)","two-siRNA summed score (-2 to +2)":1}
{"gene":"LOC441544","two-siRNA summed score (-2 to +2)":0}
{"gene":"KRT83 (keratin 83)","two-siRNA summed score (-2 to +2)":0}
{"gene":"URB1-DT (URB1 divergent transcript)","two-siRNA summed score (-2 to +2)":0}
{"gene":"B3GALT5 (beta-1,3-galactosyltransferase 5)","two-siRNA summed score (-2 to +2)":0}
{"gene":"LPAR1 (lysophosphatidic acid receptor 1)","two-siRNA summed score (-2 to +2)":-1}
{"gene":"ACBD5 (acyl-CoA binding domain containing 5)","two-siRNA summed score (-2 to +2)":0}
{"gene":"RAVER1 (ribonucleoprotein, PTB binding 1)","two-siRNA summed score (-2 to +2)":1}
{"gene":"CCDC180 (coiled-coil domain containing 180)","two-siRNA summed score (-2 to +2)":0}
{"gene":"ZNF576 (zinc finger protein 576)","two-siRNA summed score (-2 to +2)":0}
{"gene":"MAP3K5 (mitogen-activated protein kinase kinase kinase 5)","two-siRNA summed score (-2 to +2)":0}
{"gene":"LOC388480","two-siRNA summed score (-2 to +2)":0}
{"gene":"LOC440280","two-siRNA summed score (-2 to +2)":0}
{"gene":"ZNF572 (zinc finger protein 572)","two-siRNA summed score (-2 to +2)":"2 (active)"}
